Test results published in PMC12301332, “Biased antagonism of a series of bicyclic CXCR2 intracellular allosteric modulators” (Frontiers in Pharmacology, 2025).
These are yes or no findings as the source states them, for the method shown. In cells and extracts the contact can be indirect. Some binding calls cover weakened binding; strength is not graded here.

Amino acid sequences for entries named in this document (tags omitted).
UniProt P25025: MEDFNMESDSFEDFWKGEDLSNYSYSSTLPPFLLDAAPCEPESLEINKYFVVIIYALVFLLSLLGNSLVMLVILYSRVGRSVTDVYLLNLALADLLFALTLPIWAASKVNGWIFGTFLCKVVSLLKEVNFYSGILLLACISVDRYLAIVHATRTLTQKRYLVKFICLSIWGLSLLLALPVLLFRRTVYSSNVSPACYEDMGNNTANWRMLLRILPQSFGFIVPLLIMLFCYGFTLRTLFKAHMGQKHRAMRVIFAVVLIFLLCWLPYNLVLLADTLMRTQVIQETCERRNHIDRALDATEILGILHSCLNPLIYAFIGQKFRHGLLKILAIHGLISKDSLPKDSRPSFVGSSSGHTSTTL
UniProt P49407: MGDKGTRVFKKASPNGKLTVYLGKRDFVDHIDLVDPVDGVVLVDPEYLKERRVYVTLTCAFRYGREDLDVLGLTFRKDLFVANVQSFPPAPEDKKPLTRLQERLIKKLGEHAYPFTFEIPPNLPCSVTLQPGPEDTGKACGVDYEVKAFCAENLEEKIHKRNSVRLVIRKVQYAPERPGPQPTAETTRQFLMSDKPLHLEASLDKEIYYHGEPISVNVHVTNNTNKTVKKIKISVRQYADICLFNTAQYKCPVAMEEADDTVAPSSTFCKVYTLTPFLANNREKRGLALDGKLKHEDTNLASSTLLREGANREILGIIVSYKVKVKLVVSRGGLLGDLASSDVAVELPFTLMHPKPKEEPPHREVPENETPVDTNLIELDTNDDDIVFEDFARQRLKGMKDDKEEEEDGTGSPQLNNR

Experiments:
[1] = target: human chemokine receptor CXCR2 tagged with mNeonGreen (human) (UniProt P25025); assay: condition: only with the small-molecule CXCR2 antagonist MVH-46 at high concentrations; FRET or BRET; NanoBRET (NanoLux) in live HEK293A cells as above, CXCL2 or CXCL6 stimulation, with the small-molecule antagonist MVH-46 at high concentrations
[2] = target: human chemokine receptor CXCR2 tagged with mNeonGreen (human) (UniProt P25025); assay: FRET or BRET; NanoBRET (NanoLux) in live HEK293A cells co-transfected with β-arrestin1-NLuc (donor) and CXCR2-mNG (acceptor) 1:10; stimulated with ELR+ chemokines (CXCL1-3, CXCL5-8) at their EC80; 37°C; small-molecule antagonists pre-incubated 45 min (15-0.021 µM)

β-arrestin1 tagged with nanoluciferase (from UniProt P49407 1-418)
binding [1]: no binding | binding [2]: binds
